Data as given in patent US20180185520A1, “COLLAGEN IMAGING COMPOSTIONS” (Collagen Medical, LLC, priority 2015, published 2018).

Test system: infarcted myocardium
Type: in vivo, canine
Settings: Infarct heart tissue, per animal

CC(C)C[C@H](NC(=O)[C@@H]1CSSC[C@H](NC(=O)[C@H](Cc2c[nH]cn2)NC(=O)[C@H](Cc2c[nH]c3ccccc23)NC(=O)[C@H](CCCCNC(=O)CC[C@H](C(=O)O)N2CCN(CC(=O)O)CCN(CC(=O)O)CCN(CC(=O)O)CC2)NC(=O)CNC(=O)CC[C@H](C(=O)O)N2CCN(CC(=O)O)CCN(CC(=O)O)CCN(CC(=O)O)CC2)C(=O)N[C@@H]([C@@H](C)O)C(=O)N[C@@H]([C@@H](C)O)C(=O)N[C@@H](CCCCNC(=O)CC[C@H](C(=O)O)N2CCN(CC(=O)O)CCN(CC(=O)O)CCN(CC(=O)O)CC2)C(=O)N[C@@H](Cc2ccccc2)C(=O)N2CCC[C@H]2C(=O)N[C@@H](Cc2c[nH]cn2)C(=O)N[C@@H](Cc2c[nH]cn2)C(=O)N[C@@H](Cc2ccc(O)cc2)C(=O)N1)C(=O)N[C@@H](Cc1ccc(O)cc1)C(=O)N[C@@H](Cc1ccc(-c2ccccc2)cc1)C(N)=O [Compound ID No. 1]
Hyp Avg (hydroxyproline, collagen): 2350.36 µg/g and 5594.81 µg/g

Where “and” joins values, the source holds several entries; their conditions need not be identical. Equal entries are not always repeated.
